From US20160010138A1, “RAPID DETERMINATION OF MICROBIAL DROWTH AND ANTIMICROBIAL SUSEPTABILITY” (priority 2013, published 2016)
At least one compound was matched to its structure with a doubt left.

Assays:
[1] = system: Staphylococcus aureus (STAU); test: MADM system resistance phenotype tests on respiratory specimens; format: cell-based; details: all STAU-containing specimens tested
Protocol: (ABCC). Concurrent quantitative culture was performed on specimens.
Specimen preparation used a brief procedure to release bacteria, reduce imaging background, and suspend bacteria in a low ionic strength buffer. […] We rejected 10 samples with heavy interfering background when dilution to OD600=0.3 yielded organism counts inadequate for analysis. We rejected 7 samples for other technical deficiencies. The remaining 62 specimens were tested using the MADM system.
20 μL samples of prepared specimen were pipetted into independent flowcell channels and a low-voltage electrical field was applied for 5 minutes. The electrical field concentrated bacteria onto a functional surface coating that immobilized the bacteria on the lower flowcell surface. Each flowcell channel received only one type of test reagent solution that contained a selective agent if required (only for channels used to test AB, sulbactam 32 μg/mL).
The instrument acquired images at 10-minutes intervals for 180 minutes, using 10 fields of view in each flowcell channel through a 20× objective. Imaging used darkfield illumination. Identification variables included response to selective agents (AB with sulbactam), cell morphology, growth morphology, and growth rate.
Identification algorithms applied to each individual immobilized bacterial cell. The system measured the amount of change in mass over time to compute growth rates. […]

Steno = test: MADM (BACcel) phenotype/sensitivity by growth analysis, surveillance mini-BAL; format: cell-based, S. maltophilia
Protocol: Adult MICU patients with identified surrogate were included within 72 hours of intubation and if anticipated to require MV for >48 h. Moribund state or pregnancy were exclusions. Surveillance mini-BAL (Combicath, Plastimed) was performed on Day 1, 3, 5, 7 and 10 of MV. Samples were split and processed for both a) routine respiratory quantitative microbiological culture and sensitivity assays (>48 h result availability) and b) rapid (<8 hour) flowcell/surface-capture assays using the MADM system. Viable microorganisms were identified using growth analysis enhanced by a focused VAP antibody panel (S. aureus, P. aeruginosa, A. baumannii). Untypable organisms were also reported. Sensitivity was assessed using growth analysis. Attending physicians were blinded to MADM system results.
BAL sample were prepared, removing debris and separating microorganisms from other sample material. Sample microorganisms were introduced into a multichannel fluidic cassette as described elsewhere herein. Bacteria were concentrated and retained on the lower surface of all flowcells using low-voltage electrical field (5 min) Antibody labeling of bacteria in flowcells was used to aid identification.
The automated digital microscopy system was used to perform darkfield imaging of 10 fields of view every 10 minutes for 180 minutes in each flowcell channel. Initial epifluorescence imaging was also performed for antibody detection. […] Identification consisted of probability scores based on microorganism morphology and growth rates. Antibody labeling identification data was also incorporated. Observed microorganisms were then classified as STAU, PSAE, or non-target. Antibiotic responses were used to aid identification when appropriate. Quantitation was performed by counting identified microorganisms and computing original specimen CFU/mL.

Klebsiella pneumoniae = test: Growth and kill curves with imipenem (integrated intensity tracking); format: cell-based; details: varying concentrations of imipenem introduced at time=90 min (FIG. 9)
[2] = Spec# 006-D1, BACcel ID Steno, 7.68 × 10^5 CFU/ml
[3] = Spec# 006-D3, BACcel ID Steno, 1.60 × 10^4 CFU/ml

SMILES	CLI-resistance among STAU of respiratory specimens [1]	Phenotype, sensitivity (growth in antibiotic) (Steno; [2])	Phenotype, sensitivity (growth in antibiotic) (Steno; [3])	kill rate (decrease in integrated intensity after antibiotic) (Klebsiella pneumoniae)
CCC[C@@H]1C[C@@H](C(=O)N[C@@H]([C@H]2O[C@H](SC)[C@H](O)[C@@H](O)[C@H]2O)[C@H](C)Cl)N(C)C1 [CLI, clindamycin]	None of the STAU expressed CLI-resistance	growth, TZP-	growth, TZP-	–
C[C@@H](O)[C@H]1C(=O)N2C(C(=O)O)=C(SCCN=CN)C[C@H]12 [IMP, imipenem]	–	growth, TZP-	growth, TZP-	dose dependent kill rates
